From patent US20140296146A1 (Synapse B.V., priority 2011, published 2014)

Assay: general procedure: Boc solid-phase peptide synthesis; Glycyl PAM resin (0.76 meq/g); HCTU
Settings: oxidative folding step, on reduced TICA1 (18 mg, 5.49 μmole), several disulfide bridges, sequence written open

RVCPRILMKCKKDSDCLAECVCLEHGYCG
oxidative folding yield: 56%

End groups of sequences in plain letters are not given here.
